Experimental data reported in the supplement of paper PMC10849652.
The list shows a part of the results.

The chains behind the UniProt entries cited, without tags or fusion partners. Where a name states a change or a piece, a line headed by the entry shows the natural chain unless it says otherwise.
UniProt Q99442: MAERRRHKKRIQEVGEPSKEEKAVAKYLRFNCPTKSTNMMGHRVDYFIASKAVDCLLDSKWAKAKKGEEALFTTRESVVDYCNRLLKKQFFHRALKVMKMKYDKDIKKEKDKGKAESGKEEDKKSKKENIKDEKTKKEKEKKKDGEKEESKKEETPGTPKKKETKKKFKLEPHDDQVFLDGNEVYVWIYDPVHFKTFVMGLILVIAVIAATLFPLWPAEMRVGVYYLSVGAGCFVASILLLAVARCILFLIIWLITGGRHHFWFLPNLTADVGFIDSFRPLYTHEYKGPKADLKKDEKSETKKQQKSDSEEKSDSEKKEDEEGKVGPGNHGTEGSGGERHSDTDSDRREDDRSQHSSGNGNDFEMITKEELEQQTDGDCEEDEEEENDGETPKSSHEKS
UniProt O75880: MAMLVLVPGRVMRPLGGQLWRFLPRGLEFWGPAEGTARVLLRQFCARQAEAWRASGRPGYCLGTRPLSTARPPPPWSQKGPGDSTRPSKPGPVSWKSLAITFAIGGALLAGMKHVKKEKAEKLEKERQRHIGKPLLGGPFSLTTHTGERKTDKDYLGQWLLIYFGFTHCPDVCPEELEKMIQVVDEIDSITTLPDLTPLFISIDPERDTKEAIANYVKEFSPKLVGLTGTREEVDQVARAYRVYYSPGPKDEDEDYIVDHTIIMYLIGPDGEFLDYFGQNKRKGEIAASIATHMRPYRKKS
UniProt P25815: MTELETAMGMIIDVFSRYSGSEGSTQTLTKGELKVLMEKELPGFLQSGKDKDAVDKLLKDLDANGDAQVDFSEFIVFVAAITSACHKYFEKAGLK
UniProt Q969E2: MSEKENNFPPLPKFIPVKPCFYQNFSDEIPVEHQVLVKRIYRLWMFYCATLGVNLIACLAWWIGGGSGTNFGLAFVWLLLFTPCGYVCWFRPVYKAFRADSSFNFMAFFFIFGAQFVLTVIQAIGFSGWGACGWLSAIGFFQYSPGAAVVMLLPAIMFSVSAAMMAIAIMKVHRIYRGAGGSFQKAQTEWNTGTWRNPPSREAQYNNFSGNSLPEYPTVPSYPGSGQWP
UniProt Q8IZQ5, whole entry, looked up: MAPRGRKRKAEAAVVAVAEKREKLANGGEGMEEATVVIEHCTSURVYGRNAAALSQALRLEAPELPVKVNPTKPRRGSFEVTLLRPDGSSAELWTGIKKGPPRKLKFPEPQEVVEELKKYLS
UniProt Q13228: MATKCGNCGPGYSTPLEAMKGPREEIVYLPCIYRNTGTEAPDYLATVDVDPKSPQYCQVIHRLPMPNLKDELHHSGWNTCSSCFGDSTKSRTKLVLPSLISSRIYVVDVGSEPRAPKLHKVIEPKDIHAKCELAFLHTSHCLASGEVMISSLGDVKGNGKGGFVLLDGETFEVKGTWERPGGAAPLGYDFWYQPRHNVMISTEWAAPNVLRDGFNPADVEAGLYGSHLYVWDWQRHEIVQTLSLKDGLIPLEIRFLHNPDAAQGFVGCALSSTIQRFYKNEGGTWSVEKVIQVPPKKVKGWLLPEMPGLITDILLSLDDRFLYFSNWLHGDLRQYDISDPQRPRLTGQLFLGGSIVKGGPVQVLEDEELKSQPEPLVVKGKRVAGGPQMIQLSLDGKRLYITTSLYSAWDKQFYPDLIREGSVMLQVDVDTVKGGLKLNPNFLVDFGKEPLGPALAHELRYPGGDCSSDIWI
UniProt P22307: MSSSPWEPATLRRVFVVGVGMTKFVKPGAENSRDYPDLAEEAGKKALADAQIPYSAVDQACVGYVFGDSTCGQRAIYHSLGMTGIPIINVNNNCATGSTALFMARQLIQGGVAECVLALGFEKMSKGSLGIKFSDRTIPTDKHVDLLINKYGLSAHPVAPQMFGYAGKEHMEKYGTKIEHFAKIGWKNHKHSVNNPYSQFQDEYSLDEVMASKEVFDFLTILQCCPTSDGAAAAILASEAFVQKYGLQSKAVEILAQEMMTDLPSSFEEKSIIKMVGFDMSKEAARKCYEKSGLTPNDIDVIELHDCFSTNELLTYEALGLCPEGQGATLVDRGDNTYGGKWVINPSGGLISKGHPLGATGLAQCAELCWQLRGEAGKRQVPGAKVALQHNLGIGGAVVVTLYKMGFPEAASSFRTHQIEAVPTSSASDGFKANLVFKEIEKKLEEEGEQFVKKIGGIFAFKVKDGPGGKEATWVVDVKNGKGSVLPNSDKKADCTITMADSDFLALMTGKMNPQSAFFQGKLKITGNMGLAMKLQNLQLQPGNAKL
UniProt Q9Y512: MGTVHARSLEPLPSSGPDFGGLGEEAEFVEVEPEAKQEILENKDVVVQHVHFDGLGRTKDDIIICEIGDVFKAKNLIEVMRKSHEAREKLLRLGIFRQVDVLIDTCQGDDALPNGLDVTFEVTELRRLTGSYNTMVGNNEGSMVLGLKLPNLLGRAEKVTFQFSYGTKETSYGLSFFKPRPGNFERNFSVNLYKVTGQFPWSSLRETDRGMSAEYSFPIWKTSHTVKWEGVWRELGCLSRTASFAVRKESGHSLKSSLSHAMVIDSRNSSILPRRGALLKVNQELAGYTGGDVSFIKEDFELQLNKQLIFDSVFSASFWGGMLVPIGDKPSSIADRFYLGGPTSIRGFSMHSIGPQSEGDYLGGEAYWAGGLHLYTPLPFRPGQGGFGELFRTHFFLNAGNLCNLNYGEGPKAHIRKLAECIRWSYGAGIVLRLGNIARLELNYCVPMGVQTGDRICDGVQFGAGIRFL
UniProt O14828: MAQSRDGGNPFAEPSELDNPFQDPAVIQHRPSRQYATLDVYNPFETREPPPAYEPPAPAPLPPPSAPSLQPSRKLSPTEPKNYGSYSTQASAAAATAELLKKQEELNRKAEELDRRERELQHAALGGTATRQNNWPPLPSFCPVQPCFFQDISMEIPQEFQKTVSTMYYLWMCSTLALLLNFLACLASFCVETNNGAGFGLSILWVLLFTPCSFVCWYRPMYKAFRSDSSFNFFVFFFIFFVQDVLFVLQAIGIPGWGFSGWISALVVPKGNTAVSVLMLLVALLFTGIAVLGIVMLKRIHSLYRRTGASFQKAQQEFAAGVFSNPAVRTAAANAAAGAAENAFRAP
UniProt A3KN83: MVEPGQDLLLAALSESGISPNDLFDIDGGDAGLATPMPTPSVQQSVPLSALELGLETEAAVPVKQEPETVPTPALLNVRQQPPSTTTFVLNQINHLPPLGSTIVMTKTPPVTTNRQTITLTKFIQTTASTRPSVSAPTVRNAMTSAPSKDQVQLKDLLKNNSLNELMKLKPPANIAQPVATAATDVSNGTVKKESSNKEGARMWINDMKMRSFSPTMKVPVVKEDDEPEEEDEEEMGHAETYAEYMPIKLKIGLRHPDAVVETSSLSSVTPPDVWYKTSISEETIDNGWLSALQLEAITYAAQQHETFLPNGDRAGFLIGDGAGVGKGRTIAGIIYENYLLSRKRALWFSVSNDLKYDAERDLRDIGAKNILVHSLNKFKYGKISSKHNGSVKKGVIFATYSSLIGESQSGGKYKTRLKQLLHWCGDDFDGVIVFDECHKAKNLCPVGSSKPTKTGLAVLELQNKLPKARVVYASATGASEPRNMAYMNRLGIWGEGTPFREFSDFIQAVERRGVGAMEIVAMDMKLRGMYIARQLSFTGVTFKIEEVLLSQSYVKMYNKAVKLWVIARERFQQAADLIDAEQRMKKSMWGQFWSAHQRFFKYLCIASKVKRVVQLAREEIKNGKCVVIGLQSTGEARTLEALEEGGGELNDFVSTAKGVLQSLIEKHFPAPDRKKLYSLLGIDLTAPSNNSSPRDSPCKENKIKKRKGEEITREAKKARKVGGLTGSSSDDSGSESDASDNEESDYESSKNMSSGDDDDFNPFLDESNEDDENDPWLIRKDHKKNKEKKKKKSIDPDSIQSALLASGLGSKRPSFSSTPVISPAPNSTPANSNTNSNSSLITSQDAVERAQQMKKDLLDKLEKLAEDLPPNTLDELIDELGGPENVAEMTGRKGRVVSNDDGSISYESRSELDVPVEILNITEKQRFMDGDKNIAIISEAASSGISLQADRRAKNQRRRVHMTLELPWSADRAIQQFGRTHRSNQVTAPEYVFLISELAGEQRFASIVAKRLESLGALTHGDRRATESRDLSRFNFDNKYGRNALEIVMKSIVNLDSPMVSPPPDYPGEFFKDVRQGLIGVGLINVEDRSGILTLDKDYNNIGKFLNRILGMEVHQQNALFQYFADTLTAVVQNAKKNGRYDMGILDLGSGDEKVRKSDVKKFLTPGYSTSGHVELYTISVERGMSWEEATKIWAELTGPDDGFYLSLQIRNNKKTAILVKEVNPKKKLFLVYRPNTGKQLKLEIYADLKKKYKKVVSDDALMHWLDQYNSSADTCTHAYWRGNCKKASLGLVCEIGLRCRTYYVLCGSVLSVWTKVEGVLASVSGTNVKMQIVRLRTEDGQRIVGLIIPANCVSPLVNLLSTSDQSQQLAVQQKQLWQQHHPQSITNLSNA
UniProt Q96ER3: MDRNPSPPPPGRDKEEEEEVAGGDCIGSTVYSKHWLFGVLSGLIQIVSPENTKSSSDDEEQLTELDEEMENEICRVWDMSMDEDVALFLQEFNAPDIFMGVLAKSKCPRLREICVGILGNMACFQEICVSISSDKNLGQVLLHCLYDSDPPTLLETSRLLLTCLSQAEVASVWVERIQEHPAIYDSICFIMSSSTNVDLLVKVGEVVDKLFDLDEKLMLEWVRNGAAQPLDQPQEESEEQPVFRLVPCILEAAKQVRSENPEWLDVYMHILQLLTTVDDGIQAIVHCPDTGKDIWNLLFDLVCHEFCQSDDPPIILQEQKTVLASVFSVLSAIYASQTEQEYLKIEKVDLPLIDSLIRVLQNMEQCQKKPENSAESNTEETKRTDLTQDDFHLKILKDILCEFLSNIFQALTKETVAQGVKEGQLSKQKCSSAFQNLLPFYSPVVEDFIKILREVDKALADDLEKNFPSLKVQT
UniProt O75326: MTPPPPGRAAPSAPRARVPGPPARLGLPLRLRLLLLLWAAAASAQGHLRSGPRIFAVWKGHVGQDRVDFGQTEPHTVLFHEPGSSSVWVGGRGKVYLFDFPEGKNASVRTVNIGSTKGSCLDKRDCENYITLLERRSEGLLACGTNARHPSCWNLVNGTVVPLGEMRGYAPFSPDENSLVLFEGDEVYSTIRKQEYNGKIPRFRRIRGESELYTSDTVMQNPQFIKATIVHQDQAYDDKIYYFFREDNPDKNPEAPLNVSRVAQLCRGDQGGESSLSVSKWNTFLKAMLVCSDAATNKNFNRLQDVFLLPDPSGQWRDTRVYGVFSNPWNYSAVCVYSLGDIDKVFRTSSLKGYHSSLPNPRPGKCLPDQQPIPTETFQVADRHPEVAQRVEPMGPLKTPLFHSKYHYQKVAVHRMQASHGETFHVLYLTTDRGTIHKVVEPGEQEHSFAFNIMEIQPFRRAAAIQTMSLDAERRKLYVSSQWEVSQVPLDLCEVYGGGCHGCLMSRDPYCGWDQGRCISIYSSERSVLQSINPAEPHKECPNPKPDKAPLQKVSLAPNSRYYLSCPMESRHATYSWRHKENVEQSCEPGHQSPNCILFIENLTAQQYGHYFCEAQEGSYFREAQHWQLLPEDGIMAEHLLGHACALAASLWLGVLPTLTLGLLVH
UniProt Q9NVA2: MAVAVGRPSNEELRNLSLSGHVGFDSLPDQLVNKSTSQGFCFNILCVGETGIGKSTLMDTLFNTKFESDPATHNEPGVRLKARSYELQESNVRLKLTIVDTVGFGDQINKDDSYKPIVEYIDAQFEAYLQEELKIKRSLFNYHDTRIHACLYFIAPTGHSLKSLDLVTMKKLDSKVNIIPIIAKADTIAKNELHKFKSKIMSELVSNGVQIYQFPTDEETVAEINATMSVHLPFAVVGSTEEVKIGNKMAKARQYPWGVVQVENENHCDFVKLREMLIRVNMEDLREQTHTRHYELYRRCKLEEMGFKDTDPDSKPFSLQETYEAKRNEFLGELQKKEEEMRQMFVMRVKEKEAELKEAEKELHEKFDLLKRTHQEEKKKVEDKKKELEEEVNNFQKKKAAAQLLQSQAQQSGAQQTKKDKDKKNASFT
UniProt Q9NZV5, whole entry, looked up: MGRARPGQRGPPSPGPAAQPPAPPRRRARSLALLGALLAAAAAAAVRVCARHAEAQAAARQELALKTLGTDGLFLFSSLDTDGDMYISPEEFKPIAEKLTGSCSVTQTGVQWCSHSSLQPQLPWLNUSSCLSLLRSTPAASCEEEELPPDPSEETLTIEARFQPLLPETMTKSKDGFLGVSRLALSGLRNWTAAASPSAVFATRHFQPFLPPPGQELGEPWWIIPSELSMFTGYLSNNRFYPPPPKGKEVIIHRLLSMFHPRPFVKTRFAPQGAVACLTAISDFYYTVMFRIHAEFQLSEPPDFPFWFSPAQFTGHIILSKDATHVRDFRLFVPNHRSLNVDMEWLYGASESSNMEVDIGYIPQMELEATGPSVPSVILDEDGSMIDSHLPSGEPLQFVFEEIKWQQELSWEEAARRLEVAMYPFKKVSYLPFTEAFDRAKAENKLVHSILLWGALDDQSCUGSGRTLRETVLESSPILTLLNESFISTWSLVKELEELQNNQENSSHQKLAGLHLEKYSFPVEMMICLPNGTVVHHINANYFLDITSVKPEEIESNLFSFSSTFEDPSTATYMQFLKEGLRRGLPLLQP

How the values were obtained:
Experiment in all cases: log2 fold change, soluble protein after heating vs DMSO (PISA); higher = thermal stabilisation; K562 lysate, 10 uM; active = over 0.2 and 3.5 SD of the protein, either way, in both replicates (recomputed)
[1] = compound: NCC(=O)Nc1ccc(-n2nc(C(F)(F)F)cc2-c2ccc3c(ccc4ccccc43)c2)cc1
How it was run: (§1)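 A 30 min treatment with 10 μM compound was applied to crude K562 extract at 1 mg/mL protein in PBS pH 7.4 with 1 mM MgCl2. Heating for 3 min spanned 48°C-58°C, after which aliquots were pooled, adjusted to 0.5% NP-40 at 4°C and spun at 21,000xg for 90 min. TMTpro 16plex LC-MS/MS of the supernatant, with channel sums equalised, gave values recorded as log-two fold change in thermal stability against solvent controls, from duplicates.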

vorinostat = compound: O=C(CCCCCCC(=O)Nc1ccccc1)NO [vorinostat]
How it was run: as §1

silmitasertib = compound: O=C(O)c1ccc2c(c1)nc(Nc1cccc(Cl)c1)c1ccncc12 [silmitasertib]
How it was run: as §1

[2] = compound: O=C1NC(=O)C(c2cnc3ccccn23)=C1c1cn2c3c(cc(F)cc13)CN(C(=O)N1CCCCC1)CC2
How it was run: as §1

entospletinib = compound: c1cn2cc(-c3ccc4cn[nH]c4c3)nc(Nc3ccc(N4CCOCC4)cc3)c2n1 [entospletinib]
How it was run: as §1

Measured: log2 fold change

SEC62 (UniProt Q99442)
inactive: [1] 0.036 | vorinostat 0.133 | silmitasertib 0.015 | [2] 0.007 | entospletinib -0.019

SCFD2 (UniProt Q8WU76)
inactive: [1] 0.012 | vorinostat -0.073 | silmitasertib 0.043 | [2] -0.018 | entospletinib -0.046

SCO1 (UniProt O75880)
inactive: [1] 0.022 | vorinostat 0.149 | silmitasertib -0.067 | [2] -0.052 | entospletinib 0

S100P (UniProt P25815)
inactive: [1] -0.083 | vorinostat 0.173 | silmitasertib -0.102 | [2] 0.046 | entospletinib -0.081

SCAMP4 (UniProt Q969E2)
inactive: [1] 0.009 | vorinostat 0.103 | silmitasertib -0.07 | [2] 0.069 | entospletinib 0.034

SASS6 (UniProt Q6UVJ0)
inactive: [1] 0.015 | silmitasertib 0.012 | [2] 0.021 | entospletinib 0.003
active: vorinostat -0.381

SEL1L (UniProt Q9UBV2)
inactive: [1] 0.023 | vorinostat 0.083 | silmitasertib 0.031 | [2] 0.016 | entospletinib -0.012

SEC24B isoform 3 (UniProt O95487)
inactive: [1] 0.004 | vorinostat -0.162 | silmitasertib 0.029 | [2] -0.016 | entospletinib 0.019

SAP130 isoform 3 (UniProt Q9H0E3)
inactive: [1] 0.073 | vorinostat -0.139 | silmitasertib -0.097 | [2] 0.035 | entospletinib -0.123

SELENOH (UniProt Q8IZQ5)
inactive: [1] 0.005 | vorinostat 0.083 | silmitasertib 0.023 | [2] -0.006 | entospletinib -0.033

SCML2 (UniProt Q9UQR0)
inactive: [1] -0.099 | silmitasertib 0.039 | [2] 0.037 | entospletinib 0.007
active: vorinostat -0.243

SELENBP1 isoform 4 (UniProt Q13228)
inactive: [1] 0.008 | vorinostat 0.115 | silmitasertib 0.017 | [2] -0.002 | entospletinib 0.002

SCARB2 (UniProt Q14108)
inactive: [1] -0.006 | vorinostat 0.11 | silmitasertib -0.047 | [2] -0.059 | entospletinib -0.004

SBDS (UniProt Q9Y3A5)
inactive: [1] -0.011 | vorinostat 0.11 | silmitasertib -0.047 | [2] 0.007 | entospletinib 0.004

SCP2 (UniProt P22307)
inactive: [1] -0.011 | vorinostat 0.132 | silmitasertib -0.037 | [2] 0 | entospletinib 0

SEC61A2 (UniProt Q9H9S3)
inactive: [1] 0 | vorinostat 0.15 | silmitasertib -0.045 | [2] -0.043 | entospletinib 0.049

SAMM50 (UniProt Q9Y512)
inactive: [1] -0.002 | vorinostat -0.001 | silmitasertib 0.014 | [2] -0.01 | entospletinib 0.009

SCAMP3 (UniProt O14828)
inactive: [1] -0.008 | vorinostat 0.137 | silmitasertib -0.024 | [2] 0 | entospletinib 0.008

SEC23A (UniProt Q15436)
inactive: [1] -0.017 | vorinostat -0.048 | silmitasertib 0.021 | [2] -0.002 | entospletinib 0.001

SBNO1 (UniProt A3KN83)
inactive: [1] -0.002 | vorinostat 0.002 | silmitasertib -0.002 | [2] -0.02 | entospletinib 0.002

SCAF4 (UniProt O95104)
inactive: [1] 0.036 | vorinostat -0.071 | silmitasertib -0.026 | [2] -0.005 | entospletinib -0.006

SCIN (UniProt Q9Y6U3)
inactive: [1] 0.02 | vorinostat 0.117 | silmitasertib 0.001 | [2] -0.007 | entospletinib -0.002

SAAL1 (UniProt Q96ER3)
inactive: [1] -0.033 | vorinostat -0.171 | silmitasertib 0.074 | [2] -0.076 | entospletinib 0.013

SEPTIN9 (UniProt Q9UHD8)
inactive: [1] 0.005 | vorinostat 0.013 | silmitasertib -0.022 | [2] -0.006 | entospletinib -0.01

SEC11A (UniProt P67812)
inactive: [1] -0.041 | vorinostat 0.143 | silmitasertib 0.005 | [2] -0.06 | entospletinib 0.001

SEMA4C (UniProt Q9C0C4)
inactive: [1] -0.009 | vorinostat 0.048 | silmitasertib -0.056 | [2] -0.071 | entospletinib -0.048

SAP18 isoform 2 (UniProt O00422)
inactive: [1] 0.033 | vorinostat 0.024 | silmitasertib 0.057 | [2] 0.015 | entospletinib 0.037

Copied from above (2 entries):
SEC11A (UniProt P67812)
inactive: [1] -0.041 | vorinostat 0.143 | silmitasertib 0.005 | [2] -0.06 | entospletinib 0.001

SEMA4C (UniProt Q9C0C4)
inactive: [1] -0.009 | vorinostat 0.048 | silmitasertib -0.056 | [2] -0.071 | entospletinib -0.048

The list continues:

SAE1 (UniProt Q9UBE0)
inactive: [1] 0.004 | vorinostat 0.054 | silmitasertib -0.006 | [2] 0.02 | entospletinib 0.007

SEMA4G isoform 2 (UniProt Q9NTN9)
inactive: [1] 0.078 | silmitasertib 0.172 | [2] 0.103 | entospletinib -0.09
active: vorinostat -0.513

SEMA4B (UniProt Q9NPR2)
inactive: [1] -0.538 | vorinostat 0.187 | silmitasertib -0.065 | [2] -0.112 | entospletinib 0.102

SEMA7A (UniProt O75326)
inactive: [1] 0.257 | vorinostat 0.116 | silmitasertib -0.003 | [2] -0.028 | entospletinib -0.024

SEPSECS (UniProt Q9HD40)
inactive: [1] -0.006 | vorinostat 0.122 | silmitasertib -0.002 | [2] -0.005 | entospletinib -0.038

SEC22B (UniProt O75396)
inactive: [1] -0.055 | vorinostat 0.109 | silmitasertib 0.021 | [2] 0.011 | entospletinib -0.07

SCAP (UniProt Q12770)
inactive: [1] 0.029 | vorinostat 0.07 | silmitasertib -0.02 | [2] 0.07 | entospletinib -0.038

SEC13 isoform 3 (UniProt P55735)
inactive: [1] -0.01 | vorinostat -0.115 | silmitasertib 0.021 | [2] -0.045 | entospletinib -0.001

SEPTIN11 isoform 2 (UniProt Q9NVA2)
inactive: [1] 0.011 | vorinostat 0.124 | silmitasertib -0.01 | [2] 0.014 | entospletinib 0.015

SEPTIN5 (UniProt G3XAH0)
inactive: [1] 0.015 | vorinostat -0.049 | silmitasertib 0.039 | [2] -0.031 | entospletinib -0.003

SEC24A (UniProt O95486)
inactive: [1] 0.027 | vorinostat -0.057 | silmitasertib -0.015 | [2] -0.024 | entospletinib -0.011

SEC61G (UniProt P60059)
inactive: [1] -0.047 | vorinostat 0.005 | silmitasertib 0.013 | [2] 0.232 | entospletinib -0.034

SEPTIN8 (UniProt F8W8I8)
inactive: vorinostat 0.157 | silmitasertib 0.1

SELENON (UniProt Q9NZV5)
inactive: vorinostat 0.078 | silmitasertib -0.021
